PubChem BioAssay AID1053208 – Peter MacCallum Cancer Centre – 2014

- Test: 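Synthetic lethal interactions between gene loss and doxorubicin in osteosarcoma cells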 (primary screen)
- System: mouse osteosarcoma cells, early-passage culture from an engineered mouse model of fibroblastic bone tumour
- Knock-down reagent: siRNA pool against mouse genes, 40 nM
- Timing: about 120 h (48 h before drug, then 72 h with drug)
- Challenge: doxorubicin 100 nM for 72 h, roughly 30-40% inhibitory dose
- Measured: 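Viability read as ATP luminescence after 72 h of 100 nM doxorubicin or none, duplicate wells averaged, scaled to non-targeting siRNA, then expressed as robust z-scores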
- Scale: viability z-score with doxorubicin and doxorubicin viability vs non-targeting: higher = more viable cells under doxorubicin; viability z-score without drug: higher = more viable cells with knock-down alone; z-score of drug to no-drug ratio: higher = less drug sensitisation by knock-down
- Active means: 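a pool counts as active when its viability z-score with doxorubicin is -2 or below and its z-score without drug lies between -2 and 2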
Here is an unselected part of about 17,000 reagents tested. Over the whole deposit, 788 (4.7%) were called active. 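Calls rest on z-score classes alone; an extra cut-off of viability at most 70% of control was not applied to them.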 A number with no mark means an inactive call. No sequences are given here.

target gene | combined z-score class | viability z-score with doxorubicin | viability z-score without drug | z-score of drug to no-drug ratio | doxorubicin viability vs non-targeting
Nkain3 | no change with or without drug | -0.22 | 0.34 | -0.34 | 0.92
Smarcad1 | no change with or without drug | 0 | -1.52 | 1.24 | 0.94
Semg1 | no change with or without drug | 0 | 0.51 | -0.22 | 0.94
Smn1 | high cell count without drug only | -0.45 | 2.02 | -1.57 | 0.9
Gatm | low cell count with doxorubicin only (active) | -2.7 | -1.18 | -2.02 | 0.7
Stxbp5l | no change with or without drug | 0.22 | 0.34 | 0.11 | 0.96
Chrnb4 | no change with or without drug | -1.8 | -0.84 | -1.24 | 0.78
Lck | no change with or without drug | 0 | -0.51 | 0.45 | 0.94
Nlrp4c | low cell count with doxorubicin only (active) | -2.02 | -1.85 | -0.9 | 0.76
Rab30 | no change with or without drug | -0.67 | -1.52 | 0.45 | 0.88
Musk | no change with or without drug | 0 | -0.51 | 0.45 | 0.94
Tpmt | no change with or without drug | 0.22 | 0.51 | 0 | 0.96
Dnajc17 | low cell count with doxorubicin only (active) | -2.7 | 0 | -2.7 | 0.7
Rpusd1 | no change with or without drug | 1.57 | -0.17 | 1.91 | 1.08
Ak5 | no change with or without drug | -0.22 | 0.17 | -0.22 | 0.92
Defb6 | no change with or without drug | 0.79 | 1.52 | -0.11 | 1.01
Herc6 | low cell count without drug only | -0.45 | -2.02 | 1.12 | 0.9
Morc2a | no change with or without drug | 1.57 | 0.67 | 1.24 | 1.08
Cldn7 | low cell count with doxorubicin only (active) | -2.25 | -1.52 | -1.35 | 0.74
Ifi27l2a | high cell count with and without drug | 2.36 | 2.19 | 0.9 | 1.15
Psmb2 | low cell count with and without drug | -7.98 | -7.93 | -5.62 | 0.23
Vat1 | no change with or without drug | 1.01 | 0.51 | 0.79 | 1.03
Ddx42 | no change with or without drug | -0.34 | -0.51 | 0.11 | 0.91
Suv39h2 | no change with or without drug | 0.45 | 0.67 | 0.11 | 0.98
Stoml3 | no change with or without drug | 0.67 | 1.01 | 0.11 | 1

Records above whose target name starts with C or c (2):
target gene | combined z-score class | viability z-score with doxorubicin | viability z-score without drug | z-score of drug to no-drug ratio | doxorubicin viability vs non-targeting
Chrnb4 | no change with or without drug | -1.8 | -0.84 | -1.24 | 0.78
Cldn7 | low cell count with doxorubicin only (active) | -2.25 | -1.52 | -1.35 | 0.74

The results go on:
target gene | combined z-score class | viability z-score with doxorubicin | viability z-score without drug | z-score of drug to no-drug ratio | doxorubicin viability vs non-targeting
Gemin2 | no change with or without drug | -0.22 | -1.18 | 0.79 | 0.92
Cd53 | no change with or without drug | -0.67 | -0.84 | 0 | 0.88
Mcm6 | low cell count without drug only | 0.34 | -2.19 | 2.25 | 0.97
Or4c31 | no change with or without drug | 0.34 | -1.18 | 1.35 | 0.97
Wdr46 | no change with or without drug | 0 | -0.84 | 0.67 | 0.94
Crkl | no change with or without drug | -1.69 | -1.69 | -0.56 | 0.79
Ro60 | no change with or without drug | -0.22 | -0.84 | 0.45 | 0.92
Ppp3cc | no change with or without drug | 1.35 | -0.17 | 1.69 | 1.06
Ntpcr | no change with or without drug | -0.34 | 0.34 | -0.45 | 0.91
Gpank1 | no change with or without drug | 0 | -1.85 | 1.57 | 0.94
H2-M10.5 | no change with or without drug | 0.45 | 0.51 | 0.22 | 0.98
Sectm1b | no change with or without drug | -0.34 | 0.51 | -0.56 | 0.91
Rock1 | no change with or without drug | -0.45 | 1.18 | -1.12 | 0.9
Mcm8 | no change with or without drug | -1.12 | -1.85 | 0.22 | 0.84
4930542C12Rik | high cell count without drug only | 0 | 2.7 | -1.46 | 0.94
Rnf138rt1 | no change with or without drug | -0.9 | 0.84 | -1.35 | 0.86
Zfp423 | high cell count without drug only | 0.9 | 2.19 | -0.45 | 1.02
Cldn4 | no change with or without drug | -0.22 | 0.34 | -0.34 | 0.92
Akt2 | no change with or without drug | -1.12 | -1.01 | -0.45 | 0.84
Pigz | no change with or without drug | 1.57 | 0.51 | 1.35 | 1.08
Col12a1 | no change with or without drug | -1.46 | -0.51 | -1.12 | 0.81
Irf7 | no change with or without drug | 0.67 | -0.51 | 1.24 | 1
Tuba4a | no change with or without drug | 0.22 | -0.84 | 1.01 | 0.96
Mtmr12 | no change with or without drug | 1.91 | 0.84 | 1.46 | 1.11
Zfp459 | high cell count without drug only | 0.9 | 2.36 | -0.45 | 1.02
